Data: publication PMC5155164
No constants are given. Whether binding was seen depends on the method and setting. In cells and extracts the contact can be indirect. Some entries that bind do so weakly or less than the wild type.

Target: GFP-p62 (UniProt Q13501)
Assay: co-IP; HeLa cells transfected with GFP-vector or the GFP-tagged protein for 16 h (48 h for the Htt(1–548) constructs); GFP-tagged proteins pulled down with GFP-Trap_MA beads (Chromotek); endogenous CCT2 detected by blot

B1: CCT2 (protein, UniProt P78371 1-535)
chain: MASLSLAPVNIFKAGADEERAETARLTSFIGAIAIGDLVKSTLGPKGMDKILLSSGRDASLMVTNDGATILKNIGVDNPAAKVLVDMSRVQDDEVGDGTTSVTVLAAELLREAESLIAKKIHPQTIIAGWREATKAAREALLSSAVDHGSDEVKFRQDLMNIAGTTLSSKLLTHHKDHFTKLAVEAVLRLKGSGNLEAIHIIKKLGGSLADSYLDEGFLLDKKIGVNQPKRIENAKILIANTGMDTDKIKIFGSRVRVDSTAKVAEIEHAEKEKMKEKVERILKHGINCFINRQLIYNYPEQLFGAAGVMAIEHADFAGVERLALVTGGEIASTFDHPELVKLGSCKLIEEVMIGEDKLIHFSGVALGEACTIVLRGATQQILDEAERSLHDALCVLAQTVKDSRTVYGGGCSEMLMAHAVTQLANRTPGKEAVAMESYAKALRMLPTIIADNAGYDSADLVAQLRAAHSEGNTTAGLDMREGTIGDMAILGITESFQVKRQVLLSAAEAAEVILRVDNIIKAAPRKRVPDHHPC
How did the binding turn out when B1 was run?
Its binding is “binds”.
